Measurements taken from the supplement of paper PMC11006884.
Only a part is listed here, and it is no random draw. The data scatter; read single values as rough.

Each target was assayed with COC(=O)/C=C/c1ccccc1 [methyl cinnamate] (assay: log2 ratio of iodoacetamide-alkyne labeling of the cysteine site, DMSO over compound (competition); higher = stronger covalent engagement of the cysteine by the compound, active = 1 or more). Details: 500 µM; treatment time 1 h; system: HEK293T cell lysate.
Procedure, shortened: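 HEK293T lysate (2 mg/mL) was incubated with electrophile (500 µM) or vehicle for 1 h at ambient temperature and then with iodoacetamide alkyne for 1 h. Labelled proteins were clicked to sCIP-TMT reagents, pooled, digested, enriched on streptavidin and measured by Orbitrap Eclipse LC-MS/MS with FAIMS, with FragPipe quantification. The per-cysteine log2 competition ratio is mean control-channel reporter intensity over mean compound-channel reporter intensity. Across three replicates with duplicate channels, cysteines quantified in only one replicate were excluded.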

log2 ratio of iodoacetamide-alkyne labeling, inactive:
UniProt Q9H6R7_C472 0.257, GEMIN7 C44 (UniProt Q9H840) 0.117, IARS2 C91 (UniProt Q9NSE4) 0.0589, ZNF703 C96 (UniProt Q9H7S9) 0.283, MBNL1 C27 (UniProt Q9NR56) 0.254, EIF2B3 C64 (UniProt Q9NR50) 0.238, ZNF644 C1206 (UniProt Q9H582) 0.0266, TM9SF3 C428 (UniProt Q9HD45) -0.0132, FARSB C151 (UniProt Q9NSD9) -0.251, RTN4 C1101 (UniProt Q9NQC3) 0.112, XPO5 C10 (UniProt Q9HAV4) -0.171, UniProt Q9NRY4_C730 0.425, LRRC40 C23 (UniProt Q9H9A6) 0.333, JMJD4 C101 (UniProt Q9H9V9) 0.326, UNC45A C420 (UniProt Q9H3U1) 0.208, WNK1 C547 (UniProt Q9H4A3) 0.0377, TUBB1 C211 (UniProt Q9H4B7) -0.0987, CNOT10 C504 (UniProt Q9H9A5) 0.0315, CDC42EP4 C313 (UniProt Q9H3Q1) 0.381, UniProt Q9NQG6_C111 0.517, CNOT10 C633 (UniProt Q9H9A5) 0.193, YTHDC2 C25 (UniProt Q9H6S0) 0.335, MBNL1 C43 (UniProt Q9NR56) 0.305, XAB2 C117 (UniProt Q9HCS7) 0.12, STARD7 C302 (UniProt Q9NQZ5) -0.397, ESF1 C462 (UniProt Q9H501) 0.296, OLA1 C55 (UniProt Q9NTK5) 0.215, PNPLA8 C714 (UniProt Q9NP80) 0.222, DCP1A C149 (UniProt Q9NPI6) 0.00251, MRPL44 C53 (UniProt Q9H9J2) -0.707, LUC7L C97 (UniProt Q9NQ29) -0.153, STRN4 C337 (UniProt Q9NRL3) 0.272, HELLS C169 (UniProt Q9NRZ9) 0.416, XPNPEP1 C308 (UniProt Q9NQW7) 0.148, SH3GLB2 C172 (UniProt Q9NR46) 0.116, UCK1 C9 (UniProt Q9HA47) 0.343, UNC45A C745 (UniProt Q9H3U1) -0.18, WDR55 C306 (UniProt Q9H6Y2) -0.0365
